From article PMC9132088 come the findings set out here.

Sequences of proteins named here, by UniProt entry; tags and fusion partners are left off. Residues count along the entry.
UniProt O75131: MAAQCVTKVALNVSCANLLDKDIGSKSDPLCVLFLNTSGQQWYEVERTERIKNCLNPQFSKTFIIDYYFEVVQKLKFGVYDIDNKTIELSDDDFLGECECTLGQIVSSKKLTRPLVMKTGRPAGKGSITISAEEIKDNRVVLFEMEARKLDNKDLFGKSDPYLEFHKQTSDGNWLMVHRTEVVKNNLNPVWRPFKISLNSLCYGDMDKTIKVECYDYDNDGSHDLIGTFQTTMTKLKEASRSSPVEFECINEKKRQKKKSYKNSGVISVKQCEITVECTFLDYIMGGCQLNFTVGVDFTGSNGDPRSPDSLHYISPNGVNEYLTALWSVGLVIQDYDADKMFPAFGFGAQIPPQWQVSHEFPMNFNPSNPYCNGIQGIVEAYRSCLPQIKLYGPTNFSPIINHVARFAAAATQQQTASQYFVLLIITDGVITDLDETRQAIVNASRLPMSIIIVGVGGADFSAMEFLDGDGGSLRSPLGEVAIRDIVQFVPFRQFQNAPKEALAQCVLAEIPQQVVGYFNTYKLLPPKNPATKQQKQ
UniProt P21796: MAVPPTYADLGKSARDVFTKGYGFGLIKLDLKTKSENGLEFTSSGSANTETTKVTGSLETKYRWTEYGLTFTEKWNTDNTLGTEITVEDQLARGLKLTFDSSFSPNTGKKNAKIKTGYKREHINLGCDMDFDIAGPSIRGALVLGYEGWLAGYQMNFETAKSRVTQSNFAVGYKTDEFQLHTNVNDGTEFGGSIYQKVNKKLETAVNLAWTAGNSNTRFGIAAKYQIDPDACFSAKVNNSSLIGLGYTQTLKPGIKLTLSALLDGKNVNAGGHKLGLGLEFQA
UniProt Q12864, residues 23-832: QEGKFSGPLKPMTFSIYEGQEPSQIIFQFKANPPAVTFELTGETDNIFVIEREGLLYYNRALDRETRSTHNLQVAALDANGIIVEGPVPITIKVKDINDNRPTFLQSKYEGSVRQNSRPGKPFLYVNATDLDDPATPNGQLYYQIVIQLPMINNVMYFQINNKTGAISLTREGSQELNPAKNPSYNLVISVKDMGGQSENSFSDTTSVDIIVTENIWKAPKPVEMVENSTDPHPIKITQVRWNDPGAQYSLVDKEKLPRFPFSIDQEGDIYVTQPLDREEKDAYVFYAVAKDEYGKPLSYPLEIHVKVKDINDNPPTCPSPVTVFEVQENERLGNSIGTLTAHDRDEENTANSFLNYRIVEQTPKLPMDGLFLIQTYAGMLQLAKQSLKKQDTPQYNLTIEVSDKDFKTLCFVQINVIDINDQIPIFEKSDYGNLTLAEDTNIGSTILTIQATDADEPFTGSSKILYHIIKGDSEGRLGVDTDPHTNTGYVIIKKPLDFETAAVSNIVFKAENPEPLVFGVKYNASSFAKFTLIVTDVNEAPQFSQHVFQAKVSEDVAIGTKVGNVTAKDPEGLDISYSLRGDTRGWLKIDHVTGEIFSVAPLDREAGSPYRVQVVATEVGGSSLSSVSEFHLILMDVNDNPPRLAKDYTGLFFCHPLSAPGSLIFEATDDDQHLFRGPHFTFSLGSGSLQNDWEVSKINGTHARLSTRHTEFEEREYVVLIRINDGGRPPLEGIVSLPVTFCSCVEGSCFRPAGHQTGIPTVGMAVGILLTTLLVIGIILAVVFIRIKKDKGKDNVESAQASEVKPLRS
UniProt P13688, residues 35-526: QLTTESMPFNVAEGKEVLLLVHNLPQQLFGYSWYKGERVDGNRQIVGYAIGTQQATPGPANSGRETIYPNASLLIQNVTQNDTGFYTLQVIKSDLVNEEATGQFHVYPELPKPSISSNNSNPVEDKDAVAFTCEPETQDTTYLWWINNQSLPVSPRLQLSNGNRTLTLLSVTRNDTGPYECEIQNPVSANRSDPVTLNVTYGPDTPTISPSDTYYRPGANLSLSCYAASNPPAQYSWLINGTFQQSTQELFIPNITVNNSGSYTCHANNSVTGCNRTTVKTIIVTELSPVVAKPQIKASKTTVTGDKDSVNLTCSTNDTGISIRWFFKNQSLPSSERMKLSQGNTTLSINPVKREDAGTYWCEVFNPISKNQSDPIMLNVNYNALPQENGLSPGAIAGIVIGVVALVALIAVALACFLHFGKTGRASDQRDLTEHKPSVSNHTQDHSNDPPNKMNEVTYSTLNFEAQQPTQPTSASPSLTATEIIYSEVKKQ
UniProt P04004, residues 20-478: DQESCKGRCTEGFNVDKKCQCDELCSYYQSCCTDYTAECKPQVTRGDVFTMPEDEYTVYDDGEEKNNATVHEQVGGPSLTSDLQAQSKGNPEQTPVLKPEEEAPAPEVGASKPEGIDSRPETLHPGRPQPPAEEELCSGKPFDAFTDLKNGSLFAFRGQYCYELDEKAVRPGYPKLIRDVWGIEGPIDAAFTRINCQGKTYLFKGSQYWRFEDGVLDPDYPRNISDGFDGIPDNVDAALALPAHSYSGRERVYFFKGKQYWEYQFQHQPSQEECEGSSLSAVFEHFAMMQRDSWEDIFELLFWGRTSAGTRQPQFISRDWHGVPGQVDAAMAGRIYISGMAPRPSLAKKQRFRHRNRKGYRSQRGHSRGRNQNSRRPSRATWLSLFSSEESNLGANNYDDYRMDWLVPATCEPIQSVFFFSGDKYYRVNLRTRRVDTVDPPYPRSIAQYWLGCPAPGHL
UniProt P15924: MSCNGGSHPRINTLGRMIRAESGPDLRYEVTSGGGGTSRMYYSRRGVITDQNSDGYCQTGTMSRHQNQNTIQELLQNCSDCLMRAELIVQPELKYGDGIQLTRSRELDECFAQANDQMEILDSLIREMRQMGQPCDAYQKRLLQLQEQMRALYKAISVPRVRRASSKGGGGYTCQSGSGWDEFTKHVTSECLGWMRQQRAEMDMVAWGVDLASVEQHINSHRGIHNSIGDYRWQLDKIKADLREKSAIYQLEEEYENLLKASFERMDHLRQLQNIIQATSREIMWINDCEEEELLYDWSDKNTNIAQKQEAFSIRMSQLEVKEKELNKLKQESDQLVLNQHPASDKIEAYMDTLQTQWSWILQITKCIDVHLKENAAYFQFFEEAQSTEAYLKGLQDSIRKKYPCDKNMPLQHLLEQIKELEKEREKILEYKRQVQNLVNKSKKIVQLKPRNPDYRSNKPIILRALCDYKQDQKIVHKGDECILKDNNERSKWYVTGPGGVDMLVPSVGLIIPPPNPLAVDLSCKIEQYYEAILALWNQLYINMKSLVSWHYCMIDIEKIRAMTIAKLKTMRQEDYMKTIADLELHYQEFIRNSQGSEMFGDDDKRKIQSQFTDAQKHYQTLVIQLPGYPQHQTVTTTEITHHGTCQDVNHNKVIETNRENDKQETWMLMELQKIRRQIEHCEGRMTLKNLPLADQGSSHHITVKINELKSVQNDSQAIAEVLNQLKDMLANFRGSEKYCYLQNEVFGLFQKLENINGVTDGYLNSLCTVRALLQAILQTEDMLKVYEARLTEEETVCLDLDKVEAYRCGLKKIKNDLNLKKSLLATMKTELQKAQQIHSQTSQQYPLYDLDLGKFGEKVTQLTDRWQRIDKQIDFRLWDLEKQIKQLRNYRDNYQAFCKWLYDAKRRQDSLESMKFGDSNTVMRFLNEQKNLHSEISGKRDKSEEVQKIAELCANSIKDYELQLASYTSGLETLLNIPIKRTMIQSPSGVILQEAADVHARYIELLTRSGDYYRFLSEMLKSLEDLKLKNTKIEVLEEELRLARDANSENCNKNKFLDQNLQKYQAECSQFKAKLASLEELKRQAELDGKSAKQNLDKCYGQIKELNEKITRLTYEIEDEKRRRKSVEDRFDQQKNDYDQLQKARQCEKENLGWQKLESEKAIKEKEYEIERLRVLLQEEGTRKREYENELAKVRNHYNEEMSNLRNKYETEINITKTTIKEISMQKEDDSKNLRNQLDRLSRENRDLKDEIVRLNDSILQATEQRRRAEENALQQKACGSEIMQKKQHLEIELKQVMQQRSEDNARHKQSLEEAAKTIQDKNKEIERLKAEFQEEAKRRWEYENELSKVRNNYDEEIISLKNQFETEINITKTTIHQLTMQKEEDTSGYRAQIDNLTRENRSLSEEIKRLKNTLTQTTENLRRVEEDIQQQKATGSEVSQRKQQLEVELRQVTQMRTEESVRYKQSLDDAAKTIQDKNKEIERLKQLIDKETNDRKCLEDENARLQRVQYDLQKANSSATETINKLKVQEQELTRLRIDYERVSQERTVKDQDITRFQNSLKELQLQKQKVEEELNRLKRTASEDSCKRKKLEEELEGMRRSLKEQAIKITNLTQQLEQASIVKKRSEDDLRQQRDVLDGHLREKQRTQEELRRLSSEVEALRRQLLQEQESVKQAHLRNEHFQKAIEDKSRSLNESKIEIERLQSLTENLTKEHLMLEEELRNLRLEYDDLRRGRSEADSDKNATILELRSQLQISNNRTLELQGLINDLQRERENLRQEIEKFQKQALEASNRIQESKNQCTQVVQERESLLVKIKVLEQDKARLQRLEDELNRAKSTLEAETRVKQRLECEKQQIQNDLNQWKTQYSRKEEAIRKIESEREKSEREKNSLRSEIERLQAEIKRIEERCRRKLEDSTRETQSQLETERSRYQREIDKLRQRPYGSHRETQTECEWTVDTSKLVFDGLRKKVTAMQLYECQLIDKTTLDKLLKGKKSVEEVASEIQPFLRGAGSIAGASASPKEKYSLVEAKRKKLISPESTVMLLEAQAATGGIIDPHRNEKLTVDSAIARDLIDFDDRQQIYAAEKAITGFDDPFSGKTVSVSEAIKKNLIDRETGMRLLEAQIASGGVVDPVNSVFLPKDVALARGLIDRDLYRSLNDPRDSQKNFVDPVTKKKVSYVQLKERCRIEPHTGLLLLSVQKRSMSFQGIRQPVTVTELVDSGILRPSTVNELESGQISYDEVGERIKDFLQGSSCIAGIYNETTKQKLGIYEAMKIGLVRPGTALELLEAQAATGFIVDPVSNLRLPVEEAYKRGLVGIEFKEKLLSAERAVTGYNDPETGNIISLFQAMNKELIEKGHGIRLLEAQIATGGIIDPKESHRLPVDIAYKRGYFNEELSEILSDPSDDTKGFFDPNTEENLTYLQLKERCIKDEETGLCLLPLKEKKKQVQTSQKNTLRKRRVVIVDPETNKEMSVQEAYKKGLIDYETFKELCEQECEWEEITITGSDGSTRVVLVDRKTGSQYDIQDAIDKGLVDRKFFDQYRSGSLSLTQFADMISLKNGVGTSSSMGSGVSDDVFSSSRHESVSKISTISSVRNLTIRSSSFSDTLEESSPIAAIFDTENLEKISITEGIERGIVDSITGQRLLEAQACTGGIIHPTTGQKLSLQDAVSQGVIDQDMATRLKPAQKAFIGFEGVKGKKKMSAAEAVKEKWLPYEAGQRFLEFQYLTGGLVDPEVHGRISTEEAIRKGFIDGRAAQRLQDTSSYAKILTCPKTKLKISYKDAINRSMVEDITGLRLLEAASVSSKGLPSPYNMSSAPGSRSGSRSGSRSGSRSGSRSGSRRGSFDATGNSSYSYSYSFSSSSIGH

No constants are given. Whether binding was seen depends on the method and setting. Binding seen in cells or lysates may run through a third protein. These calls come from enrichment with a bait or labelling near it, and not all partners need be listed. For some of these results: No binding means not detected with the bait.

The chains are these.
B1: PTPN1 (enzyme, UniProt P18031 1-435)
chain: MEMEKEFEQIDKSGSWAAIYQDIRHEASDFPCRVAKLPKNKNRNRYRDVSPFDHSRIKLHQEDNDYINASLIKMEEAQRSYILTQGPLPNTCGHFWEMVWEQKSRGVVMLNRVMEKGSLKCAQYWPQKEEKEMIFEDTNLKLTLISEDIKSYYTVRQLELENLTTQETREILHFHYTTWPDFGVPESPASFLNFLFKVRESGSLSPEHGPVVVHCSAGIGRSGTFCLADTCLLLMDKRKDPSSVDIKKVLLEMRKFRMGLIQTADQLRFSYLAVIEGAKFIMGDSSVQDQWKELSHEDLEPPPEHIPPPPRPPKRILEPHNGKCREFFPNHQWVKEETQEDKDCPIKEEKGSPLNAAPYGIESMSQDTEVRSRVVGGSLRGAQAASPAKGEPSLPEKDEDHALSYWKPFLVNMCVATVLTAGAYLCYRFLFNSNT
B2: S100A14 (protein, UniProt Q9HCY8 1-104)
chain: MGQCRSANAEDAQEFSDVERAIETLIKNFHQYSVEGGKETLTPSELRDLVTQQLPHLMPSNCGLEEKIANLGSCNDSKLEFRSFWELIGEAAKSVKLERPVRGH
B3: ATLA3 (protein, UniProt Q6DD88 1-541)
chain: MLSPQRVAAAASRGADDAMESSKPGPVQVVLVQKDQHSFELDEKALASILLQDHIRDLDVVVVSVAGAFRKGKSFILDFMLRYLYSQKESGHSNWLGDPEEPLTGFSWRGGSDPETTGIQIWSEVFTVEKPGGKKVAVVLMDTQGAFDSQSTVKDCATIFALSTMTSSVQIYNLSQNIQEDDLQQLQLFTEYGRLAMDEIFQKPFQTLMFLVRDWSFPYEYSYGLQGGMAFLDKRLQVKEHQHEEIQNVRNHIHSCFSDVTCFLLPHPGLQVATSPDFDGKLKDIAGEFKEQLQALIPYVLNPSKLMEKEINGSKVTCRGLLEYFKAYIKIYQGEDLPHPKSMLQATAEANNLAAAASAKDIYYNNMEEVCGGEKPYLSPDILEEKHCEFKQLALDHFKKTKKMGGKDFSFRYQQELEEEIKELYENFCKHNGSKNVFSTFRTPAVLFTGIVALYIASGLTGFIGLEVVAQLFNCMVGLLLIALLTWGYIRYSGQYRELGGAIDFGAAYVLEQASSHIGNSTQATVRDAVVGRPSMDKKAQ
modifications: glycosylated (sialylated glycans)
B4: STT3A (enzyme, UniProt P46977 1-705)
chain: MTKFGFLRLSYEKQDTLLKLLILSMAAVLSFSTRLFAVLRFESVIHEFDPYFNYRTTRFLAEEGFYKFHNWFDDRAWYPLGRIIGGTIYPGLMITSAAIYHVLHFFHITIDIRNVCVFLAPLFSSFTTIVTYHLTKELKDAGAGLLAAAMIAVVPGYISRSVAGSYDNEGIAIFCMLLTYYMWIKAVKTGSICWAAKCALAYFYMVSSWGGYVFLINLIPLHVLVLMLTGRFSHRIYVAYCTVYCLGTILSMQISFVGFQPVLSSEHMAAFGVFGLCQIHAFVDYLRSKLNPQQFEVLFRSVISLVGFVLLTVGALLMLTGKISPWTGRFYSLLDPSYAKNNIPIIASVSEHQPTTWSSYYFDLQLLVFMFPVGLYYCFSNLSDARIFIIMYGVTSMYFSAVMVRLMLVLAPVMCILSGIGVSQVLSTYMKNLDISRPDKKSKKQQDSTYPIKNEVASGMILVMAFFLITYTFHSTWVTSEAYSSPSIVLSARGGDGSRIIFDDFREAYYWLRHNTPEDAKVMSWWDYGYQITAMANRTILVDNNTWNNTHISRVGQAMASTEEKAYEIMRELDVSYVLVIFGGLTGYSSDDINKFLWMVRIGGSTDTGKHIKENDYYTPTGEFRVDREGSPVLLNCLMYKMCYYRFGQVYTEAKRPPGFDRVRNAEIGNKDFELDVLEEAYTTEHWLVRIYKVKDLDNRGLSRT
modifications: glycosylated (primarily high mannose type glycans)

The first assay deals with human epidermal growth factor receptor 2 (ERBB2) (human) (UniProt P04626). Put plainly: proximity labelling; AAPL: SKBR3 cells treated with anti-ERBB2 antibody (Herceptin) carrying an Fe(III) probe (FeDBAb, optimal condition M5), then H2O2; membrane proteins enriched, quantitative oxidative proteomics; AAPL score >1 = L1, 0-1 with EPO FC >1.5 = L2 interactor.
Take “CPNE3 (copine-3) (from UniProt O75131 1-537)”: the binding entry is recorded as “binds”. Regarding VDAC1 (from UniProt P21796 1-283), the binding result is given as “binds”. With B1, the binding result is listed as “binds”.

For the molecule B2, the binding entry is recorded as “binds”.

The target of a further assay is liver–intestine-cadherin (CDH17) (human (endogenous in Caco-2)) (UniProt Q12864). Kind of assay: proximity labelling; AAPL: differentiated Caco-2 cells treated with LI-cadherin-specific oxidizing antibody probe, then H2O2; quantitative oxidative proteomics; L1/L2 by AAPL score; also after pretreatment of the cells with kifunensine or the sialyltransferase inhibitor 3Fax-peracetylNeu5Ac.
As to CEAM1 (from UniProt P13688 35-526), the binding entry was “binds”. In the case of VTNC (from UniProt P04004 20-478), the binding entry is given as “binds”. Turning to “desmoplakin (from UniProt P15924 1-2871)”, the binding entry is on record as “no binding”.

For B1, the binding entry is “binds”. With B3, the binding entry is “binds”. For the molecule B4, the binding entry was “binds”.
